The supplement of paper PMC12819154, “High-throughput peptide-centric local stability assay extends protein–ligand identification to membrane proteins, tissues and bacteria” (Nature Structural & Molecular Biology, 2025)
The other results are listed elsewhere or left out. Small differences around the control level are noise.

Amino acid sequences for entries named in this document (tags omitted). A change or cut given only in a name is not applied to a line headed by its entry.
UniProt Q6NXH2: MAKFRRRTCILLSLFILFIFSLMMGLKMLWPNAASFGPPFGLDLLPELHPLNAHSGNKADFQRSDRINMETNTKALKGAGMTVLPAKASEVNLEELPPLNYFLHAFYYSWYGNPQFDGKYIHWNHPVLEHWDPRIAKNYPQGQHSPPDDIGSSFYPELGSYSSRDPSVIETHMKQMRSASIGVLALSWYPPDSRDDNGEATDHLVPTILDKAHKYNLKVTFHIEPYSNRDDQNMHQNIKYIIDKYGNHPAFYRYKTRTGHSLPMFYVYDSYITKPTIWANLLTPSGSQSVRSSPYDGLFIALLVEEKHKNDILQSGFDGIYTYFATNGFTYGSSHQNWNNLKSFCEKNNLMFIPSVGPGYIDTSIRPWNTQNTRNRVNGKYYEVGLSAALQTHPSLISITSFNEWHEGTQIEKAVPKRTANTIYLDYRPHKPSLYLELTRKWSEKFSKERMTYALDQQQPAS
UniProt Q6VGS5: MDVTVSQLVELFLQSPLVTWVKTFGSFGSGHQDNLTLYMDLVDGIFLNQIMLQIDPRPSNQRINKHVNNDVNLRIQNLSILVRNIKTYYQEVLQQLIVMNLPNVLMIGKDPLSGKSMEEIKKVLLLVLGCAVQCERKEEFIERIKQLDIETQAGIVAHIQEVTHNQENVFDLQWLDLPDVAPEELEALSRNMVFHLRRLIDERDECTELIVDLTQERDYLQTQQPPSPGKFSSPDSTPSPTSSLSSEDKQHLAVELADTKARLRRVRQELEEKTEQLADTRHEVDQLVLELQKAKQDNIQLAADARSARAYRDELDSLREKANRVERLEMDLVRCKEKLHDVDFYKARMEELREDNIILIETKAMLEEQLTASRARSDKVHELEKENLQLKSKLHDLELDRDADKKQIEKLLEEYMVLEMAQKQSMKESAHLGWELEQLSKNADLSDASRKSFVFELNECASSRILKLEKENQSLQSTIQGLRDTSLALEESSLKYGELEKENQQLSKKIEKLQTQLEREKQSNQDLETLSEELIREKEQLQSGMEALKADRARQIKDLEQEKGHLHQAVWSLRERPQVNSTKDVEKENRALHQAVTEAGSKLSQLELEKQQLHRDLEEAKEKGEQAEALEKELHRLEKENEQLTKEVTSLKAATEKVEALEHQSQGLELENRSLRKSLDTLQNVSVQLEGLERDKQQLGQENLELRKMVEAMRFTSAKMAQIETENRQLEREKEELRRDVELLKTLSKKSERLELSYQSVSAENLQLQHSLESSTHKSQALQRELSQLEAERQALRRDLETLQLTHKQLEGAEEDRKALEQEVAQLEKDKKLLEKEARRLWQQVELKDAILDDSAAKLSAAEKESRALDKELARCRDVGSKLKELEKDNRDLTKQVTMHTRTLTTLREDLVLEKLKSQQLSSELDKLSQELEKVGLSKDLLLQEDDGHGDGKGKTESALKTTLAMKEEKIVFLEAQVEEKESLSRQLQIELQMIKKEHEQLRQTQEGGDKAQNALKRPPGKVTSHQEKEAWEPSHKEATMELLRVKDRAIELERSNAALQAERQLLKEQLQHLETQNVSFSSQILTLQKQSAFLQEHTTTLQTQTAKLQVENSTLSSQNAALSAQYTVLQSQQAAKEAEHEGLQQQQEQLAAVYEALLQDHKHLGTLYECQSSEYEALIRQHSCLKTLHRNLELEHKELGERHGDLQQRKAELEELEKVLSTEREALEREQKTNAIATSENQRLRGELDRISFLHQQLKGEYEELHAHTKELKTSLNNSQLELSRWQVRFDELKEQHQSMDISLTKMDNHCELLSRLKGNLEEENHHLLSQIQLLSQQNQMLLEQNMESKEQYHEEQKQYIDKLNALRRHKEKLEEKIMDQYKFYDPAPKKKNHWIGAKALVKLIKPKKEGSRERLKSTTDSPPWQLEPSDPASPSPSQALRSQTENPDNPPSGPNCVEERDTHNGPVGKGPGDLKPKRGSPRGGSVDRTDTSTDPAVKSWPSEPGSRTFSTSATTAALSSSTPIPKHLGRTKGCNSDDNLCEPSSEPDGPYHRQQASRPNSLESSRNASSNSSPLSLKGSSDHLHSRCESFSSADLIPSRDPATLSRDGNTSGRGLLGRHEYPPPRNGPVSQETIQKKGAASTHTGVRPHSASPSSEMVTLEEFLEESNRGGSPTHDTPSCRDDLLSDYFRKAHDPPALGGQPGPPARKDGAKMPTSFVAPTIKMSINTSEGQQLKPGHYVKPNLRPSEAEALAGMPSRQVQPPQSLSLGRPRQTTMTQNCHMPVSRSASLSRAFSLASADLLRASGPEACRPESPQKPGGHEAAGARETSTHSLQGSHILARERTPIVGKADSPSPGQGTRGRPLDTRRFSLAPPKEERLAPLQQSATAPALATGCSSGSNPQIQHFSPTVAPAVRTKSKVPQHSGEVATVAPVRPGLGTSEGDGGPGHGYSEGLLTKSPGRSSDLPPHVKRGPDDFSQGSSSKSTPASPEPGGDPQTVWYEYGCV
UniProt Q6P5D3: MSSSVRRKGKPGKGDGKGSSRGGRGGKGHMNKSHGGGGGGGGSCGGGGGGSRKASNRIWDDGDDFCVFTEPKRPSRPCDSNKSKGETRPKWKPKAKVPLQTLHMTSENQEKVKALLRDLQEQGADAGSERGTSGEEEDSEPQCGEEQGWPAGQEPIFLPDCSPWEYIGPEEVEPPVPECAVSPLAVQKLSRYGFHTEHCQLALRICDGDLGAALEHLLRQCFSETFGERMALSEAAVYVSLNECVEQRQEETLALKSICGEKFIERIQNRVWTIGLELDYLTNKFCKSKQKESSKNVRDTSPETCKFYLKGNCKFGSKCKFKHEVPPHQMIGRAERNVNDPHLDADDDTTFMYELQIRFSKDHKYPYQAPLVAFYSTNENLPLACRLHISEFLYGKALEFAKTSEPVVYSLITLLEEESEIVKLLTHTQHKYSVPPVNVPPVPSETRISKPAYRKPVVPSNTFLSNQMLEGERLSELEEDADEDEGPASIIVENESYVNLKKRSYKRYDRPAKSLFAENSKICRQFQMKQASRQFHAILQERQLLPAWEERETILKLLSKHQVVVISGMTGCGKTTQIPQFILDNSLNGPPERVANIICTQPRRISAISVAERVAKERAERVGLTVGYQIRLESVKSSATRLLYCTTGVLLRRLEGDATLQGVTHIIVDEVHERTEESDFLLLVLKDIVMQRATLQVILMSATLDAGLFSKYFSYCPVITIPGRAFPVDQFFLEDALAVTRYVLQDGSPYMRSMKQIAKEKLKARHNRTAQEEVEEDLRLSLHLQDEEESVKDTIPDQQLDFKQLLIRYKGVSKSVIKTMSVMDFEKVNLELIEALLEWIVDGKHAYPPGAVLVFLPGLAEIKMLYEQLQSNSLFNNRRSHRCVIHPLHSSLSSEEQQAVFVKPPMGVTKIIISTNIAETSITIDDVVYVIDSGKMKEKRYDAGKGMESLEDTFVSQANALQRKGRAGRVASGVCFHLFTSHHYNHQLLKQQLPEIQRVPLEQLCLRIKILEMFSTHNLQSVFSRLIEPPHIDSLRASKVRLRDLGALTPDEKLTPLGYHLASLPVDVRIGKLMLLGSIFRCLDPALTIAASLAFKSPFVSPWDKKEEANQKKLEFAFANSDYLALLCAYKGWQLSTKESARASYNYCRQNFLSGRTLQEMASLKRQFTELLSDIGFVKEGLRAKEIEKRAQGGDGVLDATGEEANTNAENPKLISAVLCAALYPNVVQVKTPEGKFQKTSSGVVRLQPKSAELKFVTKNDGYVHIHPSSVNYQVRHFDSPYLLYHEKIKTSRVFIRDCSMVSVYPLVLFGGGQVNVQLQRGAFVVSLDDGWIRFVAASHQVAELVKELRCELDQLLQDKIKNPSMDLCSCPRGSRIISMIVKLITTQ
UniProt Q6P9N1: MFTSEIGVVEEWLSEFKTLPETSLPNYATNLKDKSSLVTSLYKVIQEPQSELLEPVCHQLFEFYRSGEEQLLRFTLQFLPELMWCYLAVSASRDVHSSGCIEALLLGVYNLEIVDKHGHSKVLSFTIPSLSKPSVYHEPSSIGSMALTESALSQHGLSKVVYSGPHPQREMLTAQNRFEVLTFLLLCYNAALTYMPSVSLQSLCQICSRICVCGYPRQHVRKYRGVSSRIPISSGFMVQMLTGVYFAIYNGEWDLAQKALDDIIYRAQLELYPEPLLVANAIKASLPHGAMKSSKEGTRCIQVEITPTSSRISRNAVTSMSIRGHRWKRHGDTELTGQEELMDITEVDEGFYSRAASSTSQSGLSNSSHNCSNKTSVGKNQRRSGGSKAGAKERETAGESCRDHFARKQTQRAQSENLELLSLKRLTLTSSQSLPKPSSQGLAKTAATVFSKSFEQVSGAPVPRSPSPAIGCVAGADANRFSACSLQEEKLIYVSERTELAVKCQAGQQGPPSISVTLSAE
UniProt Q6PB51: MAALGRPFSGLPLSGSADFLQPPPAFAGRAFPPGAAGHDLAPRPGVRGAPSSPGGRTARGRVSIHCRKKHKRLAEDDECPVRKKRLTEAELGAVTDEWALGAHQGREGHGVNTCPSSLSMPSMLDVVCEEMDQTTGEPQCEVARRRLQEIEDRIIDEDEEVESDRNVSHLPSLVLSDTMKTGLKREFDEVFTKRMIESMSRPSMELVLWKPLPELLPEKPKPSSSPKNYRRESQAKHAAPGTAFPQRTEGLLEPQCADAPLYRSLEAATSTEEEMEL
UniProt Q6NXI6: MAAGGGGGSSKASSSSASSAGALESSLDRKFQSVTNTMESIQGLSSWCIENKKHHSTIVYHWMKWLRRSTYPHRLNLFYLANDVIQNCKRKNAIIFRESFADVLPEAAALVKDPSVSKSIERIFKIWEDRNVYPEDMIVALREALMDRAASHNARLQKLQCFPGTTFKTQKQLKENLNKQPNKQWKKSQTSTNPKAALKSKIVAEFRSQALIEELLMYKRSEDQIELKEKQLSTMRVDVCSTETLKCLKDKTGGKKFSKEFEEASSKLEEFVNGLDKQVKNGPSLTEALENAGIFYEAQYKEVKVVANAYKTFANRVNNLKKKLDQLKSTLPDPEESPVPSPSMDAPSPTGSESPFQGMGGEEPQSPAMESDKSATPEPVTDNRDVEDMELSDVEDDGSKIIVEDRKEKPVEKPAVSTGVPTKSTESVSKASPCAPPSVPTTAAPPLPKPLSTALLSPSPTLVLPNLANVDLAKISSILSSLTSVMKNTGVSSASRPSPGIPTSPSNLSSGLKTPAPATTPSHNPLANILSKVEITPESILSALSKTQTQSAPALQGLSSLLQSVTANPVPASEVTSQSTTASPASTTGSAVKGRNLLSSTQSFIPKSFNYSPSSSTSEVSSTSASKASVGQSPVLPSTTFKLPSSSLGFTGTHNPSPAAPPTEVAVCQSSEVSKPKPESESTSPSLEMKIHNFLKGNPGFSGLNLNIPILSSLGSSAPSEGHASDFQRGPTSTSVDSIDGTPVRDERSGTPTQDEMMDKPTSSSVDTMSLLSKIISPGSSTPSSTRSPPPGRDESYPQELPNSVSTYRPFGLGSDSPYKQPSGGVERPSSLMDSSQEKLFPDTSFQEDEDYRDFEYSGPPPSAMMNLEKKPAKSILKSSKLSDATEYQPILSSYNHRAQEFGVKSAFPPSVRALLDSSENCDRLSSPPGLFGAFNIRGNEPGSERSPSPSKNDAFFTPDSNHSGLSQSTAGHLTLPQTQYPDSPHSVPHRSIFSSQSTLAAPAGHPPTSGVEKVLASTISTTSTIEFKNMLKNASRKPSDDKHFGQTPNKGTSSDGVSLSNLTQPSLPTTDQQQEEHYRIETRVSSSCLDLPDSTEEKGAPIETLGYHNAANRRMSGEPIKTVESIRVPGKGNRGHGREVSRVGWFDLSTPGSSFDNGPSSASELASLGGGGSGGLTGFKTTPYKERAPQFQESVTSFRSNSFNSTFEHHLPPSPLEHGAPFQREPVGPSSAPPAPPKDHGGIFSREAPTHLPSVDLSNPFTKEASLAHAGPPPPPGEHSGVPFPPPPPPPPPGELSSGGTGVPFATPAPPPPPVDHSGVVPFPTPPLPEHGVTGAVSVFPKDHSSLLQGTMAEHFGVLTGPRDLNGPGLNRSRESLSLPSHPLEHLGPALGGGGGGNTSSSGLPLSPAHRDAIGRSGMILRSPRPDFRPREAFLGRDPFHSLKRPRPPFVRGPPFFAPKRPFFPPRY

These targets were tested with CN[C@@H]1C[C@H]2O[C@@](C)([C@@H]1OC)n1c3ccccc3c3c4c(c5c6ccccc6n2c5c31)C(=O)NC4 [staurosporine] (assay: log2 fold change of tryptic peptide abundance, ligand vs vehicle (limited proteolysis) (log2 ratio); higher = more trypsin-susceptible (destabilized)). Conditions: ligand concentration: 20 uM; sample: mouse liver crude lysate; replicate design: treated separately.

| Target | log2 fold change |
| --- | --- |
| UniProt Q6NXH2 (peptide sequence: GAGMTVLPAK, peptide start residue: 78) | -0.032 |
| UniProt Q6PD31 (peptide sequence: KELQLEELESPDITHQKR, peptide start residue: 381) | -0.35 |
| UniProt Q6VGS5 (peptide sequence: RLWQQVELK, peptide start residue: 840) | 0.0965 |
| UniProt Q6P5D3 (peptide sequence: SLFAENSK, peptide start residue: 514) | -0.167 |
| UniProt Q6P9N1 (peptide sequence: AASSTSQSGLSNSSHNCSNK, peptide start residue: 355) | -0.675 |
| UniProt Q6QI06 (peptide sequence: RAQSLKAPSIATIK, peptide start residue: 1298) | -0.392 |
| UniProt Q6NXL6 (peptide sequence: FSGESQSPGDSGK, peptide start residue: 169) | 0.614 |
| UniProt Q6PB51 (peptide sequence: LAEDDECPVRK, peptide start residue: 73) | 0.303 |
| UniProt Q6NXI6 (peptide sequence: TPAPATTPSHNPLANILSK, peptide start residue: 514) | 0.223 |
| UniProt Q6IR34 (peptide sequence: CPPPDVLPR, peptide start residue: 614) | 0.309 |
| UniProt Q6NXH8 (peptide sequence: IFCETSQK, peptide start residue: 86) | -0.245 |

Two entries from above, set out differently.
Target	log2 fold change
UniProt Q6NXL6 (peptide sequence: FSGESQSPGDSGK, peptide start residue: 169)	0.614
UniProt Q6PB51 (peptide sequence: LAEDDECPVRK, peptide start residue: 73)	0.303
